Experimental findings from patent US20110305629A1 are described below.

No constants are given. Whether binding was seen depends on the method and setting. Binding can be weak; no strength is given.

In assay [1] the target is soluble αvβ6 (Homo sapiens (Human)). Briefly: ELISA (FIG. 6) and blocking of biotinylated αvβ6 to LAP (FIG. 7), purified mAbs.
The target is the same in assay [2]. Briefly: ELISA on soluble αvβ6, purified antibodies (FIG. 6). (ELISA stands for enzyme-linked immunosorbent assay.)

B1: hu3G9 version 5 (H3/L5), pKJS168 and pKJS188 pairing (antibody, human IgG1, V domains shown)
VH: EVQLVESGGGLVQPGGSLRLSCAASGFTFSRYVMSWVRQAPGKGLEWVASISSGGRMYYPDTVKGRFTISRDNAKNSLYLQMNSLRAEDTAVYYCARGSIYDGYYVFPYWGQGTLVTVSS
VL: EIVLTQSPATLSLSPGERATLSCSASSSVSSSYLYWYQQKPGQAPRLLIYSTSNLASGIPARFSGSGSGTDFTLTISSLEPEDFAVYYCHQWSTYPPTFGGGTKVEIK
Regarding B1, the binding result in assay [1] and in assay [2] was “binds” throughout.
